Structures can show the parent of a compound that is named as a salt. The list shows a part of the results. This is a noisy data set.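 Yeast growth was read as optical density at 600 nm. The two-hybrid strains grew without histidine, so growth needed the Pex3–Pex19 binding; a compound counted as trypanosome-selective if it cut growth of the trypanosome-pair strain by more than 65% and the human-pair strain by less than 65%.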
How the values were obtained:
[1] = tested on: Saccharomyces cerevisiae HF7c pdr5Δ; experiment: general growth inhibition of yeast HF7c pdr5Δ in -Leu -Trp medium, relative to DMSO; higher = stronger general growth inhibition; conditions: 100 µM; 24 h
[2] = tested on: human PEX3-PEX19 interaction (yeast two-hybrid); experiment: growth inhibition of yeast two-hybrid strain reporting HsPex3-HsPex19 interaction, relative to DMSO; higher = stronger inhibition of human Pex3-Pex19 interaction / growth; conditions: 100 µM; 24 h; 3-aminotriazole 10 mM
[3] = tested on: T. brucei Pex3-Pex19 interaction (yeast two-hybrid); experiment: growth inhibition of yeast two-hybrid strain reporting TbPex3-TbPex19 interaction, relative to DMSO; higher = stronger inhibition of T. brucei Pex3-Pex19 interaction / growth; conditions: 100 µM; 24 h

Row | Structure (SMILES) | general growth inhibition [1] [%] | growth inhibition [2] [%] | growth inhibition [3] [%]
1 | CC1=C(/C=C/C(C)=C/C=C/C(C)=C/C=C/C=C(C)/C=C/C=C(C)/C=C/C2=C(C)C(=O)[C@@H](O)CC2(C)C)C(C)(C)C[C@H](O)C1=O [Astaxanthin] | 35.4 | 36.1 | 47.5
2 | COCCOC(=O)C1=C(C)NC(C)=C(C(=O)OC/C=C/c2ccccc2)C1c1cccc([N+](=O)[O-])c1 (stereo not drawn) [Cilnidipine] | 26.3 | 17.9 | 34.5
3 | O=P(O)(O)C(Cl)(Cl)P(=O)(O)O [Clodronic acid] | 28.6 | 33.5 | 58.3
4 | CS(=O)(=O)Nc1ccc([N+](=O)[O-])cc1Oc1ccccc1 [Nimesulide] | 48.6 | 49.1 | 63.3
5 | NC1(C(=O)O)CCCCC1 [1-Amino-1-cyclohexanecarboxylic acid hydrochloride] | 49.9 | 49.9 | 63.6
6 | CC1=C(/C=C/C(C)=C/C=C/C(C)=C\C(=O)O)C(C)(C)CCC1 [13-cis-retinoic acid] | 43.7 | 31.5 | 45.8
7 | CN=c1nc(-c2ccccc2)n(-c2ccccc2)s1 | 70.1 | 53.7 | 74.4
8 | CN(C)CCCN1c2ccccc2Sc2ccccc21 [Promazine hydrochloride] | 25.9 | 11.3 | 37.6
9 | COCCNC(=O)COc1ccc(OCCNC[C@H](O)COc2ccccc2)cc1 [ZD 7114 hydrochloride] | 38.9 | 42.5 | 55.8
10 | CNc1cc(NS(=O)(=O)c2ccc(N)cc2)nc(NC)n1 [Ro 04-6790 dihydrochloride] | 20.1 | 14.4 | 48
11 | COc1ccc(Br)cc1S(=O)(=O)NC(=O)/C=C/c1ccccc1Cc1ccc2ccccc2c1 | 36.5 | 21.2 | 20.9
12 | c1ccc(C2CN3CCSC3=N2)cc1 (single isomer, unassigned; (-)) [(-)-Tetramisole hydrochloride] | 46.8 | 47.1 | 63.3
13 | CC(=O)Nc1nnc(S(N)(=O)=O)s1 [Acetazolamide] | 49.3 | 52.9 | 60.6
14 | CC(C)c1cccc(C(C)C)c1N1C(=O)c2ccc(O)cc2C1=O | 86.1 | 81.7 | 69.6
15 | c1ccc2c(c1)CC(N1CCN(c3cccc4c3OCCO4)CC1)C2 | 6.32 | 3.49 | 29.9
16 | COC(=O)[C@@H]1[C@H]2C[C@H]3c4[nH]c5ccccc5c4CCN3C[C@@H]2CC[C@@H]1O [Yohimbine hydrochloride] | 40.4 | 37.4 | 59.5
17 | CCc1c(C)[nH]c2c1C(=O)C(CN1CCOCC1)CC2 (stereo not drawn) [Molindone hydrochloride] | 44.3 | 45.5 | 72.1
18 | O=c1[nH]c(=O)n([C@H]2C[C@H](O)[C@@H](CO)O2)cc1Br [5-Bromo-2'-deoxyuridine] | 35 | 41.5 | 55
19 | O=c1ccn([C@@H]2O[C@H](COP(=O)(O)OP(=O)(O)O)[C@@H](O)[C@H]2O)c(=O)[nH]1 [Uridine 5'-diphosphate sodium] | 47.5 | 36.7 | 62.3

Row | Structure (SMILES) | general growth inhibition [1] [%] | growth inhibition [2] [%] | growth inhibition [3] [%]
20 | Clc1ccc(Cn2c(CN3CCCC3)nc3ccccc32)cc1 [Clemizole hydrochloride] | 42.7 | 38.4 | 60.1
21 | COCCCC/C(=N\OCCN)c1ccc(C(F)(F)F)cc1 [Fluvoxamine maleate] | 35.5 | 35.5 | 49.8
22 | CC(C)C(=O)Nc1ccc([N+](=O)[O-])c(C(F)(F)F)c1 [Flutamide] | 4.94 | -8.02 | 5.09
23 | c1cc(CN2CCCCC2)cc(OCCCNc2nc3ccccc3s2)c1 | 46.8 | 44.9 | 61.4
24 | CC(=O)O[C@]1(C(C)=O)CC[C@H]2[C@@H]3C=C(Cl)C4=CC(=O)[C@@H]5C[C@@H]5[C@]4(C)[C@H]3CC[C@@]21C [Cyproterone acetate] | 33.5 | 30.1 | 40
25 | N[C@@H](COP(=O)(O)O)C(=O)O [O-Phospho-L-serine] | 38.9 | 37.9 | 58.1
26 | C=CC(N)CCC(=O)O (racemic) [(±)-gamma-Vinyl GABA] | 14 | 11.1 | 43.8
27 | O=c1cc(N2CCOCC2)oc2c(-c3ccccc3)cccc12 [LY-294,002 hydrochloride] | 55 | 49.6 | 63.5
28 | COc1cc(OC)cc(-c2cc3cnc(N)nc3nc2NC(=O)NC(C)(C)C)c1 | 55.7 | 40.2 | 64.1
29 | N.N.N.N.N.N.N.N.N.N.N.N.N.N.O.O.[Cl-].[Cl-].[Cl-].[Cl-].[Cl-].[Cl-].[Ru+4].[Ru+5].[Ru+5] [Ruthenium red] | 60.5 | 36.1 | 52.6
30 | CCCCN(CCCC)CC(O)c1cc(Cl)cc2c1-c1ccc(Cl)cc1/C2=C/c1ccc(Cl)cc1 (stereo not drawn) [Lumefantrine] | 25.5 | 15.2 | 30.8
31 | CC(C)COCC(CN(Cc1ccccc1)c1ccccc1)N1CCCC1 (stereo not drawn) [Bepridil hydrochloride] | 31.3 | 31 | 43.2
32 | CCCN(CC1CC1)c1nc(C)nc(Nc2c(Cl)cc(Cl)cc2Cl)c1Cl | 20.5 | 22.2 | 29.4
33 | N[C@H](C(=O)O)[C@H]1C[C@@H]1C(=O)O [(2S,1'S,2'S)-2-(carboxycyclopropyl)glycine] | 42.3 | 41.8 | 65.8
34 | CCOC(=O)C1=C(C)NC(C)=C(C(=O)OCC)C1c1c(F)c(F)c(F)c(F)c1F [Nemadipine-A] | 68.3 | 45 | 60.5
35 | CC(C)(NS(=O)(=O)c1ccc(Oc2ccc(F)cc2)cc1)C(=O)NO | 30.8 | 34.7 | 52.5
36 | OCC1OC(n2cnc3c(NC4CCCCC4)ncnc32)C(O)C1O (stereo not drawn) [N6-Cyclohexyladenosine] | 26.6 | 29.1 | 54
37 | CNCC[C@@H](Oc1ccccc1C)c1ccccc1 [Tomoxetine] | 42 | 38 | 56.5
38 | Cc1cccc(-c2[nH]ncc2-c2ccc3ncccc3n2)n1 | 25.6 | 25.9 | 55.5

Row | Structure (SMILES) | general growth inhibition [1] [%] | growth inhibition [2] [%] | growth inhibition [3] [%]
39 | Cc1cc2c(s1)Nc1ccccc1N=C2N1CCN(C)CC1 [Olanzapine] | 46.4 | 45.3 | 66.6
40 | O=C(O)c1cccnc1Nc1cccc(C(F)(F)F)c1 [Niflumic acid] | 48.7 | 47.9 | 55.3
41 | Cc1ccc(S(=O)(=O)NC(=O)NN2CCCCCC2)cc1 [Tolazamide] | 14.6 | 16 | 42.5
42 | CCCCC#Cc1nc(NC)c2ncn([C@@H]3O[C@H](CO)[C@@H](O)[C@H]3O)c2n1 | 42.7 | 48.8 | 66.1
43 | CCOC(=O)N1CCC(=C2c3ccc(Cl)cc3CCc3cccnc32)CC1 [Loratadine] | 26 | -0.874 | -5.34
44 | CC#CCOC(=O)c1c(C)nc2sc3c(c2c1N)CCC(O)C3 (stereo not drawn) | 39.8 | 35.3 | 56.4
45 | Nc1ncnc2c1ncn2[C@@H]1O[C@H](CO)[C@@H](O)[C@H]1O [Adenosine] | 49.5 | 40.9 | 57.5
46 | O=[N+]([O-])c1cccc2cn[nH]c12 [7-Nitroindazole] | 48.8 | 46.9 | 71.7
47 | N/C(=N\C(=O)c1nc(Cl)c(N)nc1N)NCc1ccccc1 [Benzamil hydrochloride] | 29.5 | 34.2 | 57.5
48 | CN1CCN(C2=Nc3ccccc3Oc3ccc(Cl)cc32)CC1 [Loxapine succinate] | 28.1 | 30.7 | 56
49 | CNCC[C@H](Oc1ccc(C(F)(F)F)cc1)c1ccccc1 [S-(+)-Fluoxetine hydrochloride] | 2.34 | -9.85 | 15.7
50 | CC1=C(C(=O)O)N2C(=O)[C@@H](NC(=O)[C@H](N)C3=CCC=CC3)[C@H]2SC1 [Cephradine] | 53 | 44.6 | 62.5
51 | CCCCCN(CCCOC)C(=O)C(CCC(=O)O)NC(=O)c1ccc(Cl)c(Cl)c1 (stereo not drawn) [Loxiglumide] | 20.7 | 13.1 | 32.2
52 | CC(=O)c1ccc(S(=O)(=O)NC(=O)NC2CCCCC2)cc1 [Acetohexamide] | 13.7 | 9.05 | 27.8
53 | NCC(O)(CS(=O)(=O)O)c1ccc(Cl)cc1 (stereo not drawn) [2-Hydroxysaclofen] | 27.5 | 27.2 | 50.5
54 | CCOC(=O)c1cnc2c(cnn2CC)c1NN=C(C)C [Etazolate hydrochloride] | 42 | 35.3 | 38.2
55 | N[C@@H](CCC(=O)N[C@@H](CSN=O)C(=O)NCC(=O)O)C(=O)O [S-Nitrosoglutathione] | 58.8 | 50.9 | 70.1
56 | CCCNC(=O)NS(=O)(=O)c1ccc(Cl)cc1 [Chlorpropamide] | 32 | 39.7 | 50.8

Reference: the supplement of paper PMC8326762, “A Small Molecule Inhibitor of Pex3–Pex19 Interaction Disrupts Glycosome Biogenesis and Causes Lethality in Trypanosoma brucei” (Frontiers in Cell and Developmental Biology, 2021)
